Assay results published in article PMC10627786.

What was measured:
[1] = biological target: T1, ESYT1 fused with BirA*-FLAG (BioID bait) (human) (UniProt Q9BSJ8); test: proximity labelling; BioID in stable inducible Flp-In T-REx 293 cells expressing BirA*-FLAG baits; mass spectrometry of biotinylated preys; SAINTexpress, two biological replicates per bait, 50 negative control runs, BFDR threshold 1%
T1 sequence: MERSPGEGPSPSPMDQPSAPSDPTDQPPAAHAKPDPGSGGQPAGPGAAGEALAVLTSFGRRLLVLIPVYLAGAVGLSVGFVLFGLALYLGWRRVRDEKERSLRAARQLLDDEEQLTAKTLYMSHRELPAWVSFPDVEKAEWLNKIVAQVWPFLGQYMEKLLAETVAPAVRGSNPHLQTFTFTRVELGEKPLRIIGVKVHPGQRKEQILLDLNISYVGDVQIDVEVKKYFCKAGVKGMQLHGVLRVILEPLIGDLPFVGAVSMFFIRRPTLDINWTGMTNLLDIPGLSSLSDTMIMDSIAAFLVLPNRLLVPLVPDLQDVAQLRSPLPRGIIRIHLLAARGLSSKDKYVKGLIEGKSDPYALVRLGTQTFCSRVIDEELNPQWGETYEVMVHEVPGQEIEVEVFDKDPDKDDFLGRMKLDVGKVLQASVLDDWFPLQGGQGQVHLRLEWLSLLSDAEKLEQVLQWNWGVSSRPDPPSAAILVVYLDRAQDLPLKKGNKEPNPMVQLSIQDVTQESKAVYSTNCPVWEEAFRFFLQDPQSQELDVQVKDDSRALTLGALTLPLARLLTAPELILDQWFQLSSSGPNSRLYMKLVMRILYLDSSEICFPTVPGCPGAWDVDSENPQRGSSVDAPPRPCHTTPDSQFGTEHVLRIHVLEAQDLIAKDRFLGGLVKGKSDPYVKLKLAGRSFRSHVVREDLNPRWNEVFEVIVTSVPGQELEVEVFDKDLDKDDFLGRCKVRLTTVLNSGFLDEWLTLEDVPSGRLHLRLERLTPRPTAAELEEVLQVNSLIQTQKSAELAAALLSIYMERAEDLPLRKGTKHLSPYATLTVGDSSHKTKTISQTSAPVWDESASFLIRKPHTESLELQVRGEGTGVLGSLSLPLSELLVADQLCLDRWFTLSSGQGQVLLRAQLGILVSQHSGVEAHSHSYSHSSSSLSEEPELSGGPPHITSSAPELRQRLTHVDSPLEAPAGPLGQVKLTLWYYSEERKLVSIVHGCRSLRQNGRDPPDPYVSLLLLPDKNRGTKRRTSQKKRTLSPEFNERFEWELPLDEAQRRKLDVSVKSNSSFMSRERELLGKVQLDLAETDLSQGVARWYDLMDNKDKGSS

[2] = biological target: T2, ESYT2 fused with BirA*-FLAG (BioID bait) (human) (UniProt A0FGR8); test: as above
T2 sequence: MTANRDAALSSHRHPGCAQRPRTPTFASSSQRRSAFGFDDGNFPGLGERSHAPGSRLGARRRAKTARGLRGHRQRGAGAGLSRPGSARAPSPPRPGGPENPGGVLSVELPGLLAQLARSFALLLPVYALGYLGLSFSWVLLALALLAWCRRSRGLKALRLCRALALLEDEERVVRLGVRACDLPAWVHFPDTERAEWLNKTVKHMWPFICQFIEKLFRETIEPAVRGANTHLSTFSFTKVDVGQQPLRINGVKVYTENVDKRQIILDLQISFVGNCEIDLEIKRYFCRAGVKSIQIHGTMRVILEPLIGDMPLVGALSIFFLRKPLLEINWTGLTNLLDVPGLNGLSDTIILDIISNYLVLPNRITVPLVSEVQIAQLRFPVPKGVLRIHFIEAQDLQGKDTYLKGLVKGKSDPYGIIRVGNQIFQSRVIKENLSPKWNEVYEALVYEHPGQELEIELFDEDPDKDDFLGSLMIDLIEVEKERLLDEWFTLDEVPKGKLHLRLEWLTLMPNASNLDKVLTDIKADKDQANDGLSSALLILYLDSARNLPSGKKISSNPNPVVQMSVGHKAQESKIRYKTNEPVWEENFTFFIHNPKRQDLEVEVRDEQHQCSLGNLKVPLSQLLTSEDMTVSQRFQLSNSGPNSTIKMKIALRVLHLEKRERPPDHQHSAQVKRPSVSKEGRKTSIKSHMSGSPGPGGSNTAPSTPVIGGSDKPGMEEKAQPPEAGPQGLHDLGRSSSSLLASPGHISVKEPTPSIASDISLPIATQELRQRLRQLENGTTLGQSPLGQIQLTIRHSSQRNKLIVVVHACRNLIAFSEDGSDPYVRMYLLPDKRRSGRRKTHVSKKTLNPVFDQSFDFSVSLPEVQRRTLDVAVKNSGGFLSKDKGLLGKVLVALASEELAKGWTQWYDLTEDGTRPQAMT

B1: SYNJ2BP (endogenous prey in BioID) (protein, UniProt P57105 1-145)
chain: MNGRVDYLVTEEEINLTRGPSGLGFNIVGGTDQQYVSNDSGIYVSRIKENGAAALDGRLQEGDKILSVNGQDLKNLLHQDAVDLFRNAGYAVSLRVQHRLQVQNGPIGHRGEGDPSGIPIFMVLVPVFALTMVAAWAFMRYRQQL
- binding [1]: binds
- binding [2]: no binding

These are yes or no findings as the source states them, for the method shown. Binding seen in cells or lysates may run through a third protein. Here binding means that the protein was enriched with, or labelled near, the bait; the list need not be complete. For some assays here: A no says only that the protein was not detected with the bait. Tags and fused reporters may be left off the sequences shown.
